Out of some 400,000 compounds screened, about 13,000 (3.2%) were called active. The inconclusive results got no clear call from the source; some entries with a clear call stand among them for comparison. Calls come from the whole dose curve; as a rule, active = well fitted cell-killing curve with a large enough effect; inconclusive = small, poorly fitted or top-dose-only effect, or effect the other way; inactive = flat fitted curve, though single readings scatter. Potencies beside an inconclusive call are fits to weak or partial responses and may not hold up.
Assay: qHTS assay for MDR1-selective chemotherapeutics: Primary screen using the drug-selected MDR subline cells KB-V1; note: nearly all actives have a fitted effect of over 60% in size
Conditions: KB-V1 MDR cells viability, CellTiter-Glo, 72 h; activity change, negative = cytotoxicity: at 46.1 µM (top of the series)
Method in brief: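 KB-V1 MDR subline cells in DMEM (phenol-red free, 10% FBS) exposed to compounds in qHTS concentration series for 72 h at 37 degrees C. Viability read by CellTiter-Glo luminescence; concentration-effect curves fitted after normalization and correction.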
In the case of COc1cc(S(=O)(=O)N2CCN(C(=O)c3ccccc3F)CC2)c(OC)cc1NC(C)=O, the Potency is reported as inconclusive: 20.6 µM [cytotoxic, single point].
In the case of CN(C)/C=C/C(=O)c1ccc2noc(-c3ccc(F)cc3)c2c1, the “activity change, negative = cytotoxicity” value is reported as inactive: -11.2%.
For COc1cccc2cc(C(C)N(CCCN3CCOCC3)C(=S)Nc3cccc(C)c3C)oc12 (stereo unspecified), the “activity change, negative = cytotoxicity” value was inactive: 0.13%.
With COc1ccc(/C=N/NC(=O)c2cc(C34CC5CC(CC(C5)C3)C4)[nH]n2)cc1O the Potency was inconclusive: 29.1 µM [rising, single point].
In the case of CCOC(=O)c1nc(Nc2ccc(OC)cc2)c2ccccc2n1, the Potency is reported as inconclusive: 32.6 µM [cytotoxic, single point] and the activity change, negative = cytotoxicity is reported as inconclusive: -77%.
In the case of CCOC(=O)N1CCC(N2C(=O)c3ccccc3C2Nc2cc(C)cc(C)c2)CC1 (stereo unspecified), the Potency is reported as inconclusive: 3.66 µM [cytotoxic, full curve].
With CN(Cc1ccccc1)S(=O)(=O)c1ccc(OCC(=O)NCc2ccncc2)cc1 the Potency was inconclusive: 23.1 µM [cytotoxic, single point].
With Cc1c(NC(=O)c2cccc(S(=O)(=O)N(C)c3ccccc3)c2)c(=O)n(-c2ccccc2)n1C the Potency was inconclusive: 2.06 µM [rising, full curve, poor fit].
For C[C@@H]1CN([C@@H](C)CO)C(=O)CCCn2nncc2CO[C@@H]1CN(C)C(=O)Nc1cccc(Oc2ccccn2)c1, the “activity change, negative = cytotoxicity” value was inactive: 0%.
For Cc1ccccc1Nc1c(-c2cccc(O)c2)nc2ccc(Br)cn12, the Potency was inconclusive: 29.1 µM [cytotoxic, single point].
For CCOC(=O)c1c(C=O)c(C)n(Cc2ccc(Cl)cc2)c1C, the Potency was active: 3.66 µM.
For COc1ccc(NC2=C(NCCO)C(=O)c3ccccc3C2=O)cc1, the Potency was active: 20.6 µM.
In the case of CC1CCN(C(=S)Nc2ccc3nc4n(c(=O)c3c2)CCCCC4)CC1, the Potency is reported as active: 6.51 µM.
With O=C(CSc1nnc(SCc2cccc3ccccc23)s1)c1ccc2c(c1)OCO2 the Potency was active: 18.4 µM.
For Cc1cc2c(n1-c1ccc(C(=O)NCC(C)c3ccccc3)cc1)CCCC2 (stereo unspecified), the Potency was inconclusive: 32.6 µM [cytotoxic, single point].
For O=C1NCC(O)=C1C=NCCO, the “activity change, negative = cytotoxicity” value was inactive: -0.227%.
In the case of O=C(Nc1ccccc1)C1CC2CCC1C2 (stereo unspecified), the “activity change, negative = cytotoxicity” value is reported as inactive: 11.3%.
With O=C(c1ccccc1)N(Cc1ccc(F)cc1)Cc1nc2ccccc2c(=O)[nH]1 the “activity change, negative = cytotoxicity” value was inactive: -19.5%.
For N#C/C(=C\c1ccc(OCc2ccccc2)cc1)C(=O)Nc1nc2c(s1)CCN(Cc1ccccc1)C2, the Potency was inconclusive: 29.1 µM [cytotoxic, single point].
With COC(=O)c1ccc(CN2C(=O)NC(c3ccccc3)(c3ccccc3)C2=O)o1 the Potency was inconclusive: 1.3 µM [cytotoxic, full curve].
For CN1C[C@@H]2[C@@H]3C(=O)N(Cc4ccccc4)C(=O)[C@@H]3[C@](Cc3ccccc3)(C1=O)N2C(=O)c1ccc(Br)cc1, the Potency was inconclusive: 25.9 µM [rising, partial curve, poor fit].
In the case of CCN(CC)S(=O)(=O)c1ccc2c(c1)nc(SCC(=O)N1CCCCCC1)n2-c1ccc(OC)cc1, the “activity change, negative = cytotoxicity” value is reported as inactive: -13.1%.
With Cc1ccc(S(=O)(=O)N2CCCN(c3nc4cc(C)ccc4cc3C#N)CC2)cc1 the Potency was inconclusive: 14.6 µM [cytotoxic, single point].
In the case of CCOC(=O)c1cc(-c2ccccc2)nn1CC1CC(c2ccc(Cl)cc2)=NO1 (stereo unspecified), the Potency is reported as inconclusive: 11.6 µM [cytotoxic, partial curve, poor fit].
In the case of COn1c(SCc2cccc(Cl)c2)nc2ccccc2c1=O, the Potency is reported as active: 16.4 µM.
In the case of COC(=O)[C@H](Cc1ccccc1)N(Cc1ccc(C)cc1)S(C)(=O)=O, the Potency is reported as inconclusive: 20.6 µM [cytotoxic, single point].
With CCOC(=O)[C@]12CCCC=C1N(Cc1ccc(Cl)cc1Cl)C(=O)[C@H](CC(=O)NCc1ccccc1)C2 the Potency was inconclusive: 8.2 µM [cytotoxic, partial curve].
In the case of O=S1(=O)N=C(N=Nc2c(O)[nH]c3ccccc23)c2ccccc21, the Potency is reported as inconclusive: 20.6 µM [rising, single point].
With Cc1cc(C)c(CN2CCCC(CNC(=O)c3ccc(F)cc3)C2)c(-n2cccn2)c1 (stereo unspecified) the “activity change, negative = cytotoxicity” value was inactive: -25%.
In the case of c1c2c(cc3sc(N4CCCCC4)nc13)OCCO2, the Potency is reported as active: 20.6 µM.
For CC(C)CNC(=O)C(=O)NCCC1CCCCN1S(=O)(=O)c1cccs1 (stereo unspecified), the Potency was inconclusive: 16.4 µM [cytotoxic, partial curve, poor fit].
For CCOC(=O)C1=C(C)N(CCCCCC(=O)O)C(=O)NC1c1ccc(Cl)cc1 (stereo unspecified), the Potency was inconclusive: 29.1 µM [rising, single point].
With CC(C)(C)NC(=O)CN(Cc1cccs1)C(=O)CCN1CCc2ccccc21 the “activity change, negative = cytotoxicity” value was inactive: 7.6%.
In the case of COC(=O)c1c(N2C(=O)CC(Sc3ccccc3C(=O)O)C2=O)sc2c1CCCC2 (stereo unspecified), the “activity change, negative = cytotoxicity” value is reported as inactive: 0%.
In the case of O=C(Nc1ccccn1)C1CCN(S(=O)(=O)c2ccc(Cl)cc2)CC1, the Potency is reported as inconclusive: 29.1 µM [cytotoxic, single point].
In the case of CCOC(=O)c1ccc(N2C(=O)c3n[nH]c(C)c3C2c2ccc(O)c(OC)c2)cc1 (stereo unspecified), the Potency is reported as inconclusive: 29.1 µM [rising, single point].
In the case of COc1ccc(NC(=O)C2CCCN(C(=O)NC3CCCCC3)C2)cc1OC (stereo unspecified), the Potency is reported as active: 14.6 µM.
In the case of O=c1[nH]c(-c2ccccc2)cs1, the activity change, negative = cytotoxicity is reported as inconclusive: -17.7%.
For COC(=O)c1cccc([N+](=O)[O-])c1CS(=O)(=O)c1ccc(C)cc1, the Potency was inconclusive: 23.1 µM [cytotoxic, partial curve].
In the case of Cc1ccccc1-c1nc(CN2CCCC2c2ccc(F)cc2)c(C)o1 (stereo unspecified), the “activity change, negative = cytotoxicity” value is reported as inactive: 7.43%.
For CC(C)N(C#N)c1nc(N2CCOCC2)nc(N2CCOCC2)n1, the Potency was inconclusive: 29.1 µM [cytotoxic, single point].
For Cc1nc(-c2ccccc2)ccc1C(=O)O, the “activity change, negative = cytotoxicity” value was inactive: 0%.
For Cc1cc(=O)oc2c3c(ccc12)OCN(Cc1ccccc1Cl)C3, the Potency was inconclusive: 7.31 µM [cytotoxic, partial curve].
For O=C(CSc1nccn1-c1ccc(Cl)cc1)N1CCCc2ccccc21, the Potency was inconclusive: 14.6 µM [cytotoxic, partial curve].
With CN(C(=O)COC(=O)c1cccc(S(=O)(=O)N(C)c2ccccc2)c1)C1CCCCC1 the Potency was inconclusive: 29.1 µM [rising, single point].

From PubChem BioAssay AID1347076 (National Center for Advancing Translational Sciences (NCATS), 2019)
% is set by controls: 0 for no effect and ±100 for the full control effect; potency is the fitted concentration of half-maximal effect.
